# Source: article PMC6770063, “Utilizing the Combination of Binding Kinetics and Micro-Pharmacokinetics Link in Vitro α-Glucosidase Inhibition to in Vivo Target Occupancy” (Biomolecules, 2019)
# Assay: TPK model, free compound concentration in the unstirred water layer (UWL), rat
smiles,measurement,setting,value
"O=C(O[C@@H]1Cc2c(O)cc(O)cc2O[C@@H]1c1ccc(O)c(O)c1)c1cc(O)c(O)c(O)c1 [ECG, Epicatechin gallate]",Ratio (dissociation half-life / UWL half-life),colon,0.07
same,Ratio (dissociation half-life / UWL half-life),duodenum,0.92
same,Ratio (dissociation half-life / UWL half-life),ileum,0.43
same,Ratio (dissociation half-life / UWL half-life),jejunum,0.11
"O=C(O[C@@H]1Cc2c(O)cc(O)cc2O[C@@H]1c1cc(O)c(O)c(O)c1)c1cc(O)c(O)c(O)c1 [EGCG, epigallocatechin gallate]",Ratio (dissociation half-life / UWL half-life),colon,0.09
same,Ratio (dissociation half-life / UWL half-life),duodenum,0.59
same,Ratio (dissociation half-life / UWL half-life),ileum,0.59
same,Ratio (dissociation half-life / UWL half-life),jejunum,0.07
